Experimental data from PMC10143966, “The Replicative DnaE Polymerase of Bacillus subtilis Recruits the Glycolytic Pyruvate Kinase (PykA) When Bound to Primed DNA Templates” (Life, 2023).
Results are given in words; binding and its absence hold for the method and conditions named.

Biological target: T1, B. subtilis DnaE polymerase (B. subtilis, UniProt O34623 1-1115)
T1 construct: DnaE DNA polymerase, Bacillus subtilis; also called replicative DnaE polymerase; lagging strand DNA polymerase
T1 sequence (looked up): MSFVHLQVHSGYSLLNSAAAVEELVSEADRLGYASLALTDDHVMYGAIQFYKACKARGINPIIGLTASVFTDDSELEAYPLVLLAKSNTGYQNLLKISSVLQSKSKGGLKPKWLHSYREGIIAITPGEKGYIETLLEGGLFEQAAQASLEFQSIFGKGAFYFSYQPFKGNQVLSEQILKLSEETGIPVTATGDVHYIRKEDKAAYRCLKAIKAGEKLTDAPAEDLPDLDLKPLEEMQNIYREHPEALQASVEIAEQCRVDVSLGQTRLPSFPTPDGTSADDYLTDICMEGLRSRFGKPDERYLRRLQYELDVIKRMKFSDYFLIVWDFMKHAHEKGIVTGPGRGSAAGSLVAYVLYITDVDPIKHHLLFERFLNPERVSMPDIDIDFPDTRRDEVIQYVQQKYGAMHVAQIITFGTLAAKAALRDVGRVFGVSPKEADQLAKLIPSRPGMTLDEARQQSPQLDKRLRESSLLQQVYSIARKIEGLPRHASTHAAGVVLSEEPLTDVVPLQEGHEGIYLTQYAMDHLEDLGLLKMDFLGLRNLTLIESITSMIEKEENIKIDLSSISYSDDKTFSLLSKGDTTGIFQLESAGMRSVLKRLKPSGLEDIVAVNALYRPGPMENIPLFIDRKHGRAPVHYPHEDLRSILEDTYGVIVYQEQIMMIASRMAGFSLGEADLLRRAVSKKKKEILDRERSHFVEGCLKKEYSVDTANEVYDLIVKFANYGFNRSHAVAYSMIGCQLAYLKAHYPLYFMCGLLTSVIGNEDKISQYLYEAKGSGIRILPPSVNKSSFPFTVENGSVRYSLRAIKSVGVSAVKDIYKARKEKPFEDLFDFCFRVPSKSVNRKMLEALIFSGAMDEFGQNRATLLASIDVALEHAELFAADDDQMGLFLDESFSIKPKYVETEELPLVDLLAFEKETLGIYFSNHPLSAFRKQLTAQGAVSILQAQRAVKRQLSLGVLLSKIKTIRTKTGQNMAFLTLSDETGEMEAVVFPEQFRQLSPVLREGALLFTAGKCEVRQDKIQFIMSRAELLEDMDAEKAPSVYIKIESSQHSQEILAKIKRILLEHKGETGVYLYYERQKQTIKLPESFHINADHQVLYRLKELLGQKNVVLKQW
Test: condition: only in the absence of DNA (DnaE immobilised directly on the chip surface); SPR; absence of DNA; DnaE immobilised on a C1 sensor chip by EDC/NHS chemistry, PykA added; Biacore T200; both purified

binding: no binding
B1: B. subtilis pyruvate kinase PykA, full-length, wild type (enzyme, UniProt P80885 1-585, looked up)
chain: MRKTKIVCTIGPASESIEMLTKLMESGMNVARLNFSHGDFEEHGARIKNIREASKKLGKNVGILLDTKGPEIRTHTMENGGIELETGKELIISMDEVVGTTDKISVTYEGLVHDVEQGSTILLDDGLIGLEVLDVDAAKREIKTKVLNNGTLKNKKGVNVPGVSVNLPGITEKDARDIVFGIEQGVDFIAPSFIRRSTDVLEIRELLEEHNAQDIQIIPKIENQEGVDNIDAILEVSDGLMVARGDLGVEIPAEEVPLVQKELIKKCNALGKPVITATQMLDSMQRNPRPTRAEASDVANAIFDGTDAIMLSGETAAGSYPVEAVQTMHNIASRSEEALNYKEILSKRRDQVGMTITDAIGQSVAHTAINLNAAAIVTPTESGHTARMIAKYRPQAPIVAVTVNDSISRKLALVSGVFAESGQNASSTDEMLEDAVQKSLNSGIVKHGDLIVITAGTVGESGTTNLMKVHTVGDIIAKGQGIGRKSAYGPVVVAQNAKEAEQKMTDGAVLVTKSTDRDMIASLEKASALITEEGGLTSHAAVVGLSLGIPVIVGLENATSILTDGQDITVDASRGAVYQGRASVL
notes: PykA pyruvate kinase, Bacillus subtilis; 1755 bp pykA fragment amplified from genomic DNA, cloned into p2CT; the same vector gives an N-terminal tag for PEPut; Tetramer: legends give 16 nM monomers as 4 nM tetramers; also called full-length PykA; wild-type PykA; source: E. coli Rosetta (DE3), purified (HisTrap IMAC, TEV cleavage, reverse IMAC, Superdex 200 gel filtration)
